Test results from the RepoRT retention time repository.

Assay: HILIC, Waters ACQUITY UPLC BEH Amide, 100 × 2.1 mm, 1.7 µm; A: water + 0.125% formic acid + 10 mM ammonium formate; B: 5% water + 95% acetonitrile + 0.125% formic acid + 10 mM ammonium formate; gradient (min/%B) 0/100 2/100 7.7/70 9.5/40 10.25/30 12.75/100 17/100
Settings: stereoisomer not certain

- LC retention time: 1.22 min
SMILES: O=C(O)C(=O)Cc1ccc(O)cc1 [4-Hydroxyphenylpyruvic acid]
